This passage reports binding results from patent US20230176070A1.

In test [1] the target is T1, MBP-PDZ fusion protein (mammalian (so in the source)) (UniProt P57105).
T1 sequence (looked up): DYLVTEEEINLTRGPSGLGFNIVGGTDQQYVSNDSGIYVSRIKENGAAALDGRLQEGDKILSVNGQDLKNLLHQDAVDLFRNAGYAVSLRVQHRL
The test can be described thus: beads-binding assay, MBP-PDZ-coupled resin.

For test [2], the target named is glutathione S-transferase [GST: P08515]. The test can be described thus: beads-binding assay, GST-coupled resin.

No constants are given. Whether binding was seen depends on the method and setting. Some results given as binding are weak or reduced against the parent protein; the word gives no strength. For some assays here: Where a sequence is shown, tags or fusion partners need not be part of it.

B1: P12 (VHH)
VHH: MASMTGGQQMGRNSAQVQLVESGGGLVQAGGSLRLSCTASGRTFSTYTMAWFRQAPGKEREFVAAISWSGAYYAESVKGRFTISRDNAKNTVYLQMNSLKPEDTAVYYCAAVIGSTVDSYSPSDPLEYDYWARGPRSPSEPKTPKGGCGGGLEHHHHHH
For B1, in test [1], the binding entry is on record as “binds”.

B2: G60 (VHH)
VHH: QMGRNSAEVQLVESGGSLRLSCAASGSGFSSSIIAWYRQAPGKQRELVAAIGGPGSTNYADFVEGRFTISRDNAKNTGYLQMNNLNPEDTAVYYCNEVTRSGREYWGQGTQVTVSS
For B2, the binding entry in test [2] is on record as “binds”.
